Some of the results follow.
Assays:
Test in all cases: log2 fold change, soluble protein after heating vs DMSO (PISA); higher = thermal stabilisation; K562 lysate, 10 uM; active = over 0.2 and 3.5 SD of the protein, either way, in both replicates (recomputed)
[1] = compound: CCCS(=O)(=O)Nc1ccc(F)c(C(=O)c2c[nH]c3ncc(-c4ccc(Cl)cc4)cc23)c1F [vemurafenib]
In short: (§1)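 To prepare the extract, K562 pellets were dounce-homogenised in PBS pH 7.4 with 1 mM MgCl2, giving crude material at 1 mg/mL protein. This was treated with 10 μM compound for 30 min, then heated in aliquots for 3 min over 48°C-58°C before pooling and addition of NP-40 to 0.5% at 4°C. Centrifugation at 21,000xg for 90 min left soluble protein in the supernatant, which TMTpro 16plex LC-MS/MS quantified with equalised channel sums. Results are log-two fold changes in thermal stability compared with solvent controls, from duplicates.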

The chains behind the UniProt entries cited, without tags or fusion partners. Where a name states a change or a piece, a line headed by the entry shows the natural chain unless it says otherwise.
UniProt Q8WUA2: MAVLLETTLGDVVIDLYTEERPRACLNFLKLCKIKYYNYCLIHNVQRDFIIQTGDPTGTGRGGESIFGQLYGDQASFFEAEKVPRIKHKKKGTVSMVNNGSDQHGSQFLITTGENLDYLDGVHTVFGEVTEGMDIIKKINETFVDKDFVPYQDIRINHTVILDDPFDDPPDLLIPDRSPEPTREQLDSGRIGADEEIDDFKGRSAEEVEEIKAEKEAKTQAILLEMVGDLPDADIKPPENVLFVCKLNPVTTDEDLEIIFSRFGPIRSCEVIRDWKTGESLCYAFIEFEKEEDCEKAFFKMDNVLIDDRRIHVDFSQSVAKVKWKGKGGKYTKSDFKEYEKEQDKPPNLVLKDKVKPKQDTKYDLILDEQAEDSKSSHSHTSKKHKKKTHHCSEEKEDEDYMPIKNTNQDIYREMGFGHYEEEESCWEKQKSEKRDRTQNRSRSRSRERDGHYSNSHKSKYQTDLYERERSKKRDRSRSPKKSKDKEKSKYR
UniProt O94906: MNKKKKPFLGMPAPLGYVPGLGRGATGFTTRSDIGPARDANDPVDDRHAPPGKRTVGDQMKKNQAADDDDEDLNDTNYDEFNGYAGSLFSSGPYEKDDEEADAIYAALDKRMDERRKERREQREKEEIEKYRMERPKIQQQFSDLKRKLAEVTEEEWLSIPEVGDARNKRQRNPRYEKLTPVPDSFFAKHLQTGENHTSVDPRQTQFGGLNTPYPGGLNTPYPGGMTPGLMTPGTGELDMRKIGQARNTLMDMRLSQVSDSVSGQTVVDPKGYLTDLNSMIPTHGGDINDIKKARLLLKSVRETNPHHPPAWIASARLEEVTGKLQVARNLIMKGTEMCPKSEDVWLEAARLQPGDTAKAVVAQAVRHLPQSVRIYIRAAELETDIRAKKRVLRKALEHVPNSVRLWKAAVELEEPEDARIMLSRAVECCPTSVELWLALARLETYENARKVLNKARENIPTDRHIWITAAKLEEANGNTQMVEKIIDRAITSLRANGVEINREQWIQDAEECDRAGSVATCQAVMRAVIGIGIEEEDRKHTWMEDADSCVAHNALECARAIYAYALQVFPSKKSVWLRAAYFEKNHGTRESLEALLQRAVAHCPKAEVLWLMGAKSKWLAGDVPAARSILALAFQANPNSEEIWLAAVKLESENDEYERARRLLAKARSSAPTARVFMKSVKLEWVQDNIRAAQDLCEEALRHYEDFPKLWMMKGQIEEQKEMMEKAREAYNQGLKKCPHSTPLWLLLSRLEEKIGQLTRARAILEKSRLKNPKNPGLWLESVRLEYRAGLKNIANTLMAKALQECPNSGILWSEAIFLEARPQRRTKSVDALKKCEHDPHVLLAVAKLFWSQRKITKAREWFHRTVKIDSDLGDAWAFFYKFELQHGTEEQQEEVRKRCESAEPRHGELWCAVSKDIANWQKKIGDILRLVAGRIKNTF
UniProt Q13029: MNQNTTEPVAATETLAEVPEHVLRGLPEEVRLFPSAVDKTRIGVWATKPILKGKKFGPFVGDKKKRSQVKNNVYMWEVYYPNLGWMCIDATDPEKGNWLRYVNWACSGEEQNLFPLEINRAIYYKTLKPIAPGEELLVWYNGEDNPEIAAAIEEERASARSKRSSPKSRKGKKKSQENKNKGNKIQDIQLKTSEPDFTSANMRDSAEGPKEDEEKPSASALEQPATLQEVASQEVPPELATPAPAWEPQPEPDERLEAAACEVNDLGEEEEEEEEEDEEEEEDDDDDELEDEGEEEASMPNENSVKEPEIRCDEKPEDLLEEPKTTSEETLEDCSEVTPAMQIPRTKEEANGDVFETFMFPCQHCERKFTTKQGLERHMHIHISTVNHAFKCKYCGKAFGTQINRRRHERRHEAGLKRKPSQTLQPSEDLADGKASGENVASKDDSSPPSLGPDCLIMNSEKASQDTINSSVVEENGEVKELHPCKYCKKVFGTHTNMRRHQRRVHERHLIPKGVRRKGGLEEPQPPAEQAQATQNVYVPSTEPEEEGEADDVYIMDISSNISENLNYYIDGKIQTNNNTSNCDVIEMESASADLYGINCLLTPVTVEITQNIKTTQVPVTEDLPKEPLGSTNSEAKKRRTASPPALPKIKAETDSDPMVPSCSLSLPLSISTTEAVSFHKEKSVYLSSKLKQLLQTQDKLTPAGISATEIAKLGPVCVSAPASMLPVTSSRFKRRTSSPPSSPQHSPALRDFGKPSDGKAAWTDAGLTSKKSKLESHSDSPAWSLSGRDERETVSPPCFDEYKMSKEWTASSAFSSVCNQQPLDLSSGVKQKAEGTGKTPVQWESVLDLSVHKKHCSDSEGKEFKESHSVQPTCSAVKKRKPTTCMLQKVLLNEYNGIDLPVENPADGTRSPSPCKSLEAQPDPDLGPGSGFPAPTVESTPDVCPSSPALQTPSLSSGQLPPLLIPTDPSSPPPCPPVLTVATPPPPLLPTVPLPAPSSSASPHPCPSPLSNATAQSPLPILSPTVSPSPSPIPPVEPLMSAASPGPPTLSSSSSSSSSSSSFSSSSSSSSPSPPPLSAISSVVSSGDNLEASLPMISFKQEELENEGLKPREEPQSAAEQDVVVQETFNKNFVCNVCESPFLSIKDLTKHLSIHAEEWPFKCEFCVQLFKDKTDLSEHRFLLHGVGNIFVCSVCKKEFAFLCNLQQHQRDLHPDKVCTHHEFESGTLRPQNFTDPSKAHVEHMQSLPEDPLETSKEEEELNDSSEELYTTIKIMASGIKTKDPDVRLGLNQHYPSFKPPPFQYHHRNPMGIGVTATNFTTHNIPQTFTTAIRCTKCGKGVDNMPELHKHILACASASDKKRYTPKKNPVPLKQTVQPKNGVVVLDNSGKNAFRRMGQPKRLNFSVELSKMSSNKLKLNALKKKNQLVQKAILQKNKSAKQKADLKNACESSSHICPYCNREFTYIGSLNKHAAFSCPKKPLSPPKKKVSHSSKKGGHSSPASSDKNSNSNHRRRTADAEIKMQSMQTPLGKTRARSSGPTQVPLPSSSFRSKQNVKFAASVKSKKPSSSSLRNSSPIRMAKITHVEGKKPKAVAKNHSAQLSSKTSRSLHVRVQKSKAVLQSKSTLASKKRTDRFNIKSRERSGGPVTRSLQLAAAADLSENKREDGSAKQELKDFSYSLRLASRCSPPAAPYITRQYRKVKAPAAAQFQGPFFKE
UniProt P10644, whole entry, looked up: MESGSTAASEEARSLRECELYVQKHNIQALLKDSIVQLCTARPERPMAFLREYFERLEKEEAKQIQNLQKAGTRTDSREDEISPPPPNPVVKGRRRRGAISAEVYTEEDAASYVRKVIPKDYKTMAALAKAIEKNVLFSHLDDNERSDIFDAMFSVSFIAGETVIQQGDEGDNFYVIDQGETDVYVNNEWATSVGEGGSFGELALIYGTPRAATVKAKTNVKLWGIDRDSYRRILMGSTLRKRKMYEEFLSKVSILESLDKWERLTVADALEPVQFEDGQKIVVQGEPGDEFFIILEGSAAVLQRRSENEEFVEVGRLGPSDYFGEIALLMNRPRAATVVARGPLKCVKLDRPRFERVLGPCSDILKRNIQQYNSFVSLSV
UniProt Q6IN85: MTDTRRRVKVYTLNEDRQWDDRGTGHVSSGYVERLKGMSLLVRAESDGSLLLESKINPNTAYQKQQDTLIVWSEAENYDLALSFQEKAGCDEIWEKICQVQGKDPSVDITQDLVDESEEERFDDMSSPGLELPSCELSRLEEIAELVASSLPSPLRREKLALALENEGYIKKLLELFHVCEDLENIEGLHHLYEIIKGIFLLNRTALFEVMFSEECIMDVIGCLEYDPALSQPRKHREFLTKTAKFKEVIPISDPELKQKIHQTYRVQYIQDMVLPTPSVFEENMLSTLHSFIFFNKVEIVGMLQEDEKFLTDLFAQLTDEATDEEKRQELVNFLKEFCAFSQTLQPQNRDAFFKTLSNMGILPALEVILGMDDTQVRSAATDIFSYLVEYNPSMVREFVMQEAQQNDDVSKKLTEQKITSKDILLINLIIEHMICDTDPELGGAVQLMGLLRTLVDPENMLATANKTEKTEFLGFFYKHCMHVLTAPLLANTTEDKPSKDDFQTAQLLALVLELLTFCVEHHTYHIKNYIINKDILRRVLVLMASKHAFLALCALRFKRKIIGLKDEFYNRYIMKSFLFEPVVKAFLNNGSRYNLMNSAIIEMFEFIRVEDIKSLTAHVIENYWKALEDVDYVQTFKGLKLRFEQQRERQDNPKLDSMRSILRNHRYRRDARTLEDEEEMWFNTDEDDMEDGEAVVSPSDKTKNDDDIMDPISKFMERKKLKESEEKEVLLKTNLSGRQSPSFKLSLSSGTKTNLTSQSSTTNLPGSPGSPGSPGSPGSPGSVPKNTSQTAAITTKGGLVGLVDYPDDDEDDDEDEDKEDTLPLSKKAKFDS
UniProt P60510: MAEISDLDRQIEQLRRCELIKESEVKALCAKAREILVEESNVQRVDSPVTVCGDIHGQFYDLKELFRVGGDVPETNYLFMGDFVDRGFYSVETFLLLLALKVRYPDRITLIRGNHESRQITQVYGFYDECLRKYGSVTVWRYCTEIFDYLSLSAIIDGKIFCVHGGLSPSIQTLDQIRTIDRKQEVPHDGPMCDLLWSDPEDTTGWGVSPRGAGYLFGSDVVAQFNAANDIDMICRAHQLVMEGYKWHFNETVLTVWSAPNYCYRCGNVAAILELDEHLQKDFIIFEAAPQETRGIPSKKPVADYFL
UniProt O60678: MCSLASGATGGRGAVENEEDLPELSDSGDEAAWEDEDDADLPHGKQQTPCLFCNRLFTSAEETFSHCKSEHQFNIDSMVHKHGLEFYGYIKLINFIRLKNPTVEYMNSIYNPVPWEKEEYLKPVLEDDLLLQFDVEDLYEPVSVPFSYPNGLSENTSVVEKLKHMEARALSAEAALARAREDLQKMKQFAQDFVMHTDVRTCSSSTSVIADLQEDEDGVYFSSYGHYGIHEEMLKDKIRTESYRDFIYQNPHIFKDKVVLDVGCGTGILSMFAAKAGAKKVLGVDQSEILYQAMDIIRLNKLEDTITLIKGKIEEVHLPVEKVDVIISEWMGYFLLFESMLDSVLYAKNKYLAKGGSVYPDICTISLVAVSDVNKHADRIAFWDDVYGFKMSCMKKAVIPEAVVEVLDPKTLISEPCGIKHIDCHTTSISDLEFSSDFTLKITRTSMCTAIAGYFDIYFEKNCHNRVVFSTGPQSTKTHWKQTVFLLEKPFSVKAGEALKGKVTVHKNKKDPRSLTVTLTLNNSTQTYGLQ
UniProt Q9H2H8: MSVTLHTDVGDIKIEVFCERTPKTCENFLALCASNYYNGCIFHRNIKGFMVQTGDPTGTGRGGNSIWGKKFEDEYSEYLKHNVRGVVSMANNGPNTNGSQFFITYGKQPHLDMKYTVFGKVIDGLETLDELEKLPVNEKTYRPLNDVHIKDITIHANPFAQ
UniProt P07225: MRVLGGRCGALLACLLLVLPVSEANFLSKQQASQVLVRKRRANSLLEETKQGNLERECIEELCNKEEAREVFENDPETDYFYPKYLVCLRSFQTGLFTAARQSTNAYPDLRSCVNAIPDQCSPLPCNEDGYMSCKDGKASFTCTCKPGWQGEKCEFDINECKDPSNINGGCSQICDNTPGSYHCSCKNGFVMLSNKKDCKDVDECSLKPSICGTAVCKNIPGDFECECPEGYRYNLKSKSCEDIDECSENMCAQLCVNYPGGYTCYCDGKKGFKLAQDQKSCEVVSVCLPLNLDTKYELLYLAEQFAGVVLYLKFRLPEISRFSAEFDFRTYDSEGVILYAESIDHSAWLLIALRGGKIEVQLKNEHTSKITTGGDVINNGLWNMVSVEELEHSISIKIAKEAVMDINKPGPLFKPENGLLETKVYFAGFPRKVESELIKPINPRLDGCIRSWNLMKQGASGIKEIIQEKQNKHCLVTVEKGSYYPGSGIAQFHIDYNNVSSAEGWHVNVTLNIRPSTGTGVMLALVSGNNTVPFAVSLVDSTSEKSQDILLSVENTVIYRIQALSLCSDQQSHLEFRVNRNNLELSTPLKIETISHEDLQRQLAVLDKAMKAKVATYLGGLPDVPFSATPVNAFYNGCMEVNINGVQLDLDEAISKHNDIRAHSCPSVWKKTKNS
UniProt Q9Y570: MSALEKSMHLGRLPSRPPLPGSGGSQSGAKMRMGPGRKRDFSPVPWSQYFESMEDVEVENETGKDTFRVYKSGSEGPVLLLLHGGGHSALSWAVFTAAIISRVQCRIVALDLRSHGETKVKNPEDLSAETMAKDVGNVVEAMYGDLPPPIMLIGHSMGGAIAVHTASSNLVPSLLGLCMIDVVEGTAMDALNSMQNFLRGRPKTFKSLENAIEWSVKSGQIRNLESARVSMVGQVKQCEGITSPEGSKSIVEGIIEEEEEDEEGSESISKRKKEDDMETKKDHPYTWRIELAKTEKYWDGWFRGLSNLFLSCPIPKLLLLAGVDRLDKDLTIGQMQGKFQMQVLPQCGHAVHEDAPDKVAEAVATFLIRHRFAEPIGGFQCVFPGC

[2] = compound: CCCS(=O)(=O)Nc1ccc(F)c(C(=O)c2c[nH]c3ncc(Cl)cc23)c1F
In short: as §1

[3] = compound: CCN(CCCOc1ccc2c(Nc3cc(CC(=O)Nc4cccc(F)c4)[nH]n3)ncnc2c1)CCOP(=O)(O)O [barasertib]
In short: as §1

[4] = compound: CC[C@@H]1C(=O)N(C)c2cnc(Nc3ccc(C(=O)NC4CCN(C)CC4)cc3OC)nc2N1C1CCCC1
In short: as §1

[5] = compound: CC[C@@H]1C(=O)N(C)c2cnc(Nc3ccc(C(=O)N[C@H]4CC[C@H](N5CCN(CC6CC6)CC5)CC4)cc3OC)nc2N1C(C)C [volasertib]
In short: as §1

[6] = compound: CCn1c(C(=O)N(C2CC2)C2CC2)cc2c3c(ncn3C)c(Nc3cc(C)n(C)n3)nc21
In short: as §1

[7] = compound: CCn1cc(-c2ccnc3[nH]c(-c4cccc(CN(C)C)c4)cc23)c(-c2ccc(NC(=O)N(C)C)cc2)n1
In short: as §1

[8] = compound: CN1CCC(CNc2ccc3ncc(-c4cccc(OC(F)(F)F)c4)n3n2)CC1
In short: as §1

[9] = compound: CN1CCN(CCOc2cc(OC3CCOCC3)c3c(Nc4c(Cl)ccc5c4OCO5)ncnc3c2)CC1 [saracatinib]
In short: as §1

[10] = compound: CN1CCN(c2nc(C3=C(c4c[nH]c5ccccc45)C(=O)NC3=O)c3ccccc3n2)CC1 [sotrastaurin]
In short: as §1

Target	log2 fold change [1]	log2 fold change [2]	log2 fold change [3]	log2 fold change [4]	log2 fold change [5]	log2 fold change [6]	log2 fold change [7]	log2 fold change [8]	log2 fold change [9]	log2 fold change [10]
PPP3CA isoform 2 (UniProt Q08209)	inactive: -0.008	inactive: -0.037	inactive: 0.025	inactive: 0.046	inactive: -0.005	inactive: 0.032	inactive: 0.115	inactive: -0.182	inactive: 0	inactive: -0.005
PRKAR1B (UniProt P31321)	inactive: -0.003	inactive: -0.046	inactive: 0.079	inactive: -0.062	inactive: -0.084	inactive: 0.156	inactive: -0.031	inactive: -0.068	inactive: 0.044	inactive: -0.018
PREPL (UniProt Q4J6C6)	inactive: -0.032	inactive: 0.023	inactive: -0.01	inactive: -0.019	inactive: -0.009	inactive: 0.007	inactive: 0.001	inactive: -0.013	inactive: -0.006	inactive: 0.032
PPIL4 (UniProt Q8WUA2)	inactive: -0.004	inactive: 0.013	inactive: -0.016	inactive: 0.061	inactive: -0.019	inactive: -0.014	inactive: -0.012	inactive: 0.004	inactive: 0.012	inactive: 0.037
PPP1R12C isoform 4 (UniProt Q9BZL4)	inactive: 0.008	inactive: -0.022	inactive: -0.049	inactive: 0.046	inactive: 0.007	inactive: -0.007	inactive: -0.06	inactive: 0.054	inactive: 0.016	inactive: 0.075
PRDX6 (UniProt P30041)	inactive: 0.005	inactive: -0.024	inactive: -0.005	inactive: 0.018	inactive: 0.021	inactive: 0.014	inactive: 0.075	inactive: -0.033	inactive: -0.019	inactive: 0.002
PPM1G (UniProt O15355)	inactive: -0.038	inactive: -0.013	inactive: -0.013	inactive: -0.006	inactive: -0.007	inactive: 0.043	inactive: 0.059	inactive: -0.027	inactive: 0.007	inactive: 0.007
PPP2R5C isoform 5 (UniProt Q13362)	inactive: -0.056	inactive: -0.013	inactive: -0.03	inactive: -0.063	inactive: 0.014	inactive: 0.058	inactive: 0.046	inactive: -0.08	inactive: 0	inactive: -0.011
PPT2 isoform 3 (UniProt Q9UMR5)	inactive: 0.007	inactive: 0.012	inactive: 0.028	inactive: 0.01	inactive: -0.023	inactive: -0.026	inactive: 0.007	inactive: 0.018	inactive: -0.011	inactive: 0.003
PRPF6 (UniProt O94906)	inactive: -0.019	inactive: 0.004	inactive: 0.039	inactive: -0.057	inactive: -0.015	inactive: 0.019	inactive: 0.034	inactive: -0.049	inactive: 0.009	inactive: 0.025
PPP1R21 (UniProt Q6ZMI0)	inactive: 0.178	inactive: 0.025	inactive: 0.04	inactive: 0.171	inactive: -0.052	inactive: -0.072	inactive: -0.009	inactive: -0.055	inactive: -0.014	inactive: -0.008
PRKD3 (UniProt O94806)	inactive: -0.148	inactive: -0.057	inactive: 0.161	inactive: -0.25	inactive: -0.06	inactive: -0.143	active: -0.876	inactive: 0.219		inactive: 0.086
PRDM2 (UniProt Q13029)	inactive: -0.002	inactive: 0.029	inactive: 0.013		inactive: -0.078	inactive: 0.019	inactive: -0.016	inactive: 0.058	inactive: -0.03	
PRKCSH (UniProt K7ELL7)	inactive: 0.089	inactive: 0.02	inactive: -0.037	inactive: 0.186	inactive: -0.04	inactive: 0.013	inactive: 0.217	inactive: -0.008	inactive: -0.011	inactive: -0.015
PRKAR1A (UniProt P10644)	inactive: 0.007	inactive: 0.027	inactive: 0.034	inactive: -0.011	inactive: -0.017	inactive: 0.049	inactive: 0.073	inactive: -0.084	inactive: -0.01	inactive: -0.025
PPP1R12A (UniProt O14974)	inactive: -0.007	inactive: 0.012	inactive: 0.032	inactive: 0.014	inactive: -0.01	inactive: -0.003	inactive: -0.022	inactive: -0.007	inactive: 0.001	inactive: 0.006
PPP4R3A (UniProt Q6IN85)	inactive: -0.006	inactive: -0.007	inactive: -0.008	inactive: 0.035	inactive: 0.014	inactive: -0.011	inactive: -0.163	inactive: 0.068	inactive: -0.032	inactive: 0.039
PPP1R9A isoform 3 (UniProt Q9ULJ8)	inactive: -0.122	inactive: 0.024	inactive: 0.132	inactive: -0.063	inactive: 0.034	inactive: 0.043	inactive: -0.017	inactive: -0.01	inactive: -0.028	inactive: -0.021
PPP1R35 (UniProt Q8TAP8)	inactive: 0.006	inactive: -0.005	inactive: 0.018	inactive: 0.064	inactive: 0.011	inactive: 0.236	inactive: 0.042	inactive: -0.006	inactive: 0.008	inactive: -0.017
PPP4C (UniProt P60510)	inactive: 0.029	inactive: 0.014	inactive: -0.04	inactive: 0.009	inactive: -0.001	inactive: -0.024	inactive: 0.093	inactive: -0.035	inactive: -0.009	inactive: 0.018
PRDX2 (UniProt P32119)	inactive: -0.029	inactive: -0.021	inactive: -0.011	inactive: 0.026	inactive: 0.045	inactive: 0.016	inactive: -0.074	inactive: 0.109	inactive: -0.006	inactive: 0.018
PPP6R1 (UniProt Q9UPN7)	inactive: -0.012	inactive: -0.002	inactive: 0.005	inactive: 0.018	inactive: -0.01	inactive: 0.011	inactive: 0.001	inactive: 0.003	inactive: -0.013	inactive: 0.008
PRMT3 (UniProt O60678)	inactive: 0.004	inactive: 0.02	inactive: 0.013	inactive: 0.005	inactive: -0.013	inactive: -0.015	inactive: 0.051	inactive: -0.143	inactive: -0.01	inactive: -0.013
PPM1E (UniProt Q8WY54)	inactive: 0.029	inactive: -0.003	inactive: 0.015	inactive: 0.061	inactive: 0.01	inactive: -0.002	inactive: -0.071	inactive: 0.083	inactive: 0.039	inactive: 0.031
PPP1R13L (UniProt Q8WUF5)	inactive: -0.023	inactive: 0.07	inactive: 0.158	inactive: 0.119	inactive: 0.066	inactive: -0.056	inactive: 0.023	inactive: 0.027		inactive: -0.032
PPIL3 (UniProt Q9H2H8)	inactive: 0.048	inactive: -0.017	inactive: 0.099	inactive: -0.004	inactive: -0.007	inactive: 0.027	inactive: 0.067	inactive: 0.021	inactive: 0.004	inactive: -0.03
PROS1 (UniProt P07225)	inactive: -0.057	inactive: 0.008	inactive: 0.005	inactive: 0.042	inactive: 0.028	inactive: 0.007	inactive: -0.002	inactive: 0.047	inactive: 0.006	inactive: 0.011
PPME1 isoform 4 (UniProt Q9Y570)	inactive: 0.005	inactive: 0.003	inactive: -0.045	inactive: -0.006	inactive: 0.016	inactive: 0.028	inactive: -0.015	inactive: 0.008	inactive: -0.01	inactive: -0.008
PPM1F (UniProt P49593)	inactive: -0.008	inactive: -0.001	inactive: -0.024	inactive: -0.065	inactive: -0.041	inactive: 0.184	inactive: 0.033	inactive: -0.006	inactive: -0.013	inactive: 0.004
PPP2R5C isoform 4 (UniProt Q13362)	inactive: 0.029	inactive: 0.02	inactive: -0.001	inactive: 0.018	inactive: -0.002	inactive: 0.022	inactive: -0.02	inactive: -0.038	inactive: 0.017	inactive: -0.036

Full records from above. Order of values: log2 fold change [1] | log2 fold change [2] | log2 fold change [3] | log2 fold change [4] | log2 fold change [5] | log2 fold change [6] | log2 fold change [7] | log2 fold change [8] | log2 fold change [9] | log2 fold change [10]
PPP1R12A (UniProt O14974) as listed: inactive: -0.007 | inactive: 0.012 | inactive: 0.032 | inactive: 0.014 | inactive: -0.01 | inactive: -0.003 | inactive: -0.022 | inactive: -0.007 | inactive: 0.001 | inactive: 0.006
PRDX6 (UniProt P30041) as listed: inactive: 0.005 | inactive: -0.024 | inactive: -0.005 | inactive: 0.018 | inactive: 0.021 | inactive: 0.014 | inactive: 0.075 | inactive: -0.033 | inactive: -0.019 | inactive: 0.002

Reference: the supplement of paper PMC10849652
